Patent US20250255867A1 (Kadmon Corporation, LLC, priority 2022, published 2025)
At least one structure is not confirmed: it was looked up by name or label, or the drawing left a doubt.

Legend:
patients with cGVHD [1] = assay: Example 1 phase IIa dose-finding study: cGVHD response per 2014 NIH Consensus Criteria (ORR, BOR, DOR, TTR, organ response); assay type: in vivo, human
Method: Eligible patients were allogeneic bone marrow transplant or allogeneic hematopoietic cell transplant (alloHCT) recipients of age ≥18 years with persistent cGVHD manifestations after having received one to three prior systemic lines of therapy and who were receiving corticosteroid treatment with or without a calcineurin inhibitor and/or concurrent extracorporeal photopheresis.
(FIG. 1) Before enrollment of the subsequent cohort, safety data in each previous cohort were analyzed after eight patients reached two months of treatment to assure that there was no safety signal. […] No safety concerns were identified, allowing for planned dose escalation.
Progression was defined per the 2014 NIH cGVHD Consensus Criteria. […] Response was initially assessed after two cycles; however, this was amended to evaluate response on day 1 of each cycle, starting at cycle 2 day 1.
All responses were assessed by the investigators. […]
Best Overall Response (BOR). […] BOR was assessed per the 2014 NIH Consensus Development Project for Clinical Trials in cGVHD criteria. […]
Best Response in Each Individual Organ. […] Response was assessed per the 2014 NIH Consensus Development Project for Clinical Trials in cGVHD criteria; CR was defined as the resolution of all manifestations in each organ or site; PR was defined as the improvement in at least 1 organ or site without progression in any other organ or site. […]

[2] = tested on: CD41 Tregs and Th17 cells; assay: Example 1: exploratory PD analyses of peripheral blood mononuclear cells; assay type: in vivo, human
subjects with cGVHD [3] = assay: Example 2: corticosteroid and other immunosuppressant reduction/discontinuation; parameters: species or system human; conditions: in vivo
Method: (§1) All responses were assessed by the study site investigators.

subjects with cGVHD [4] = assay: Example 2 phase II randomized study: cGVHD response per 2014 NIH Consensus Criteria (best ORR, organ ORR, DOR, time to response); parameters: species or system human; conditions: in vivo
Method: as §1

patients with cGVHD [5] = assay: Example 1: Lee cGVHD Symptom Scale (LSS); assay type: in vivo, human; conditions: pooled cohorts
Method: All responses were assessed by the investigators.
QOL assessment. […] Thirty-five percent of all patients (37% of responders and 32% of nonresponders) reported a clinically meaningful improvement in LSS score on consecutive assessments.
Change From Baseline in Overall Score on Lee cGvHD Symptom Scale at Specified Time Points. Lee cGVHD symptom scale, a patient-reported symptom scale used to measure symptom burden and has 7 subscales (Skin, Eyes and Mouth, Breathing, Eating and Digestion, Muscles and Joints, Energy, and Mental and Emotional) with ratings as follows: 0—Not at all, 1—Slightly, 2—Moderately, 3—Quite a bit, 4—Extremely, with lower values representing better outcome. Score for each subscale was normalized to a score ranged from 0 to 100, where higher score-worse symptoms. An overall score was calculated as average of these 7 subscales. EOT visit was performed within 3 days after the participant's last dose of study drug. Baseline value was defined as valid and last non-missing value obtained within 28 days prior to participant receiving first study medication. […] Analysis was performed on mITT population. Here, ‘number analyzed’=participants with available data for each specified category. Here, ‘0’ in the number analyzed field signifies that none of the participants were available for the analysis at the specified time points.

subjects with BOS = assay: Example 3: FEV1 evaluation in BOS; parameters: species or system human; conditions: in vivo
Method: Patients with BOS were identified as: 1) % predicted forced expiratory volume in 1 second (% FEV1) of £79% at enrollment, and 2) clinician attribution of lung disease due to cGVHD.
In Example 1, lung function assessments were conducted at baseline and on Day 1 of each cycle for patients with suspected of known lung involvement. In Example 2, lung function assessments were conducted at baseline and at the time of response assessments: Day 1 of cycles 2-5 and then on Day 1 of every other cycle thereafter.

For `CC(C)NC(=O)COc1cccc(-c2nc(Nc3ccc4[nH]ncc4c3)c3ccccc3n2)c1` [Belumosudil, 2-{3-[4-(1H-indazol-5-ylamino)-2-quinazolinyl]phenoxy}-N-(propan-2-yl) acetamide], the “Partial responses achieved in lung (best response by organ)” value (patients with cGVHD [1]; 400 mg once daily) was “three”, the “Responses occurring after 24 weeks of treatment” value (patients with cGVHD [1]; pooled cohorts) was “Four of 35” and the “Percentage of CD41 Tregs in peripheral blood” value ([2]; by cycle 2 day 1, through C4D1 and C7D1) was “increasing trend”. For the same compound, the “Th17 cells in peripheral blood” value ([2]; through C4D1 and C6D25) was “decrease”, the “Subjects who discontinued corticosteroid therapy” value (subjects with cGVHD [3]) was “Twenty-one” and the “Responses occurring within 6 months of treatment” value (subjects with cGVHD [4]) was “Ninety-one”. The “Clinically meaningful LSS improvement on consecutive assessments, all patients” value (patients with cGVHD [5]) was “Thirty-five”, the “^3 5% % FEV1 responses maintained over two consecutive FEV1 evaluations” value (subjects with BOS) was 14 of the 23 and the “^3 10% % FEV1 responses maintained over two consecutive FEV1 evaluations” value (subjects with BOS) was 9 of the 13.
